Where a chain is given by its changes, count along the chain named. Read-outs that look alike come from different tables or passages of the source. Results are given in words; binding and its absence hold for the method and conditions named. In cells and extracts the contact can be indirect. Here binding means that the protein was enriched with, or labelled near, the bait; the list need not be complete. For some of these results: A no says only that the protein was not detected with the bait. Tags and fused reporters may be left off the sequences shown.
T1: TtAgo (Thermus thermophilus Argonaute, TT_P0026) (T. thermophilus (endogenous in strain HB27)) (UniProt Q746M7)
T1 sequence: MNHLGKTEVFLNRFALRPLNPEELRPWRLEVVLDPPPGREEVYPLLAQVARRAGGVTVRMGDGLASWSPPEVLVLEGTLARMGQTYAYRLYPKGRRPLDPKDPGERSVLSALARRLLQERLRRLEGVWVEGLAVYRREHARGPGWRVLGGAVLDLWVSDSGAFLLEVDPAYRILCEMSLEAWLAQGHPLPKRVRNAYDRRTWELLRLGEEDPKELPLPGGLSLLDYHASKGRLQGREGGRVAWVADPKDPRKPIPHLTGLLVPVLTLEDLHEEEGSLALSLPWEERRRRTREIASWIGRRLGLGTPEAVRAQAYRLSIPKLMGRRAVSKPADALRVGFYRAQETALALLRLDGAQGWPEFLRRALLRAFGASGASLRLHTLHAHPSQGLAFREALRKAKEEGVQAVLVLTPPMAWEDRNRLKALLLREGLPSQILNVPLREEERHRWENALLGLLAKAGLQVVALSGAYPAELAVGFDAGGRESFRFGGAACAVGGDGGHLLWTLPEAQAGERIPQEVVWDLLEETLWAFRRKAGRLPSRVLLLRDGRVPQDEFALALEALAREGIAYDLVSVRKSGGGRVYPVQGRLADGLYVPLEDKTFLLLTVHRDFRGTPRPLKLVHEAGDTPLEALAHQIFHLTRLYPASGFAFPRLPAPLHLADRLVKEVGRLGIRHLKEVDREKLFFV

T2: TtAgo^D478A,D546A (catalytically inactive double point-mutant TtAgo) (T. thermophilus (endogenous in strain HB27)) (UniProt Q746M7)
T2 sequence: T1 sequence with D478A, D546A

B1: GyrA (enzyme, UniProt Q5SIL4 1-805)
chain: MAQVLPVEITEELKQSFINYAMSVIVDRALPDVRDGLKPVQRRILFGAYQEGVLPGRKHVKSAKIVGEVMGKYHPHGDAAIYDALVRMAQPWNLRYPLIDGQGNFGSIDGDPPAAQRYTEARLSPIGAEMLLDIDKDTVDFRPNYDGSLKEPEVLPAAIPNLLVNGASGIAVGMATSLPPHNLSEVVDALVAMIENPAITLEEVMRHLPGPDFPTGGKLSKKGIKEAYATGRGSLKVRAKVRVEEKGQRPVLVVTEIPYQVNKASLIAQIAALVKAKKIEDIVGLRDESDRQGLRIAIELKRGANPQVVLNQLYKHTALQTSFTVNLLAIVDGEPKVLSLLDLMRHYLDHRKEVVRRRSLFELRKAEERAHVLEGLLIALDHIDEVIALIRGSEDAPKARIALMERFGLSEAQAQAILDMRLQRLVALEREKLLEEYRGLMEEIARLKAILEDEARLLAEVKADLLRVKEKYGDARRTLITEFEETFNPEDLIEDEPMVITLTAQGFLKRLPLESYRAQGRGGKGLLAGRTKEEDEATHVFVADAHDDLLLFTNRGRVYRLKVYELPEMGRQARGVHVKSLLPLAEDEEVAALLSVRGLDQEGYLVFATERGLVKRTALKEYQNLGQAGLIAIRLQEGDRLVGVALSDPEDEAILATQEGQAIRFPLEEVRATGRDTQGVIGVRFKKPEDRVVSLVVVKPGEMVDLLSVSTRGYGKRTPLSEYPLQGRGGMGVITYAVSTKVGRLAALLKVRGGEDLLVLSRRGLAIRTPVAEIRQYSRATAGVRVMNLPEDDEVASAFVVEEEK
B2: UvrB (protein, UniProt Q56243 1-665)
chain: MTFRYRGPSPKGDQPKAIAGLVEALRDGERFVTLLGATGTGKTVTMAKVIEALGRPALVLAPNKILAAQLAAEFRELFPENAVEYFISYYDYYQPEAYVPGKDLYIEKDASINPEIERLRHSTTRSLLTRRDVIVVASVSAIYGLGDPREYRARNLVVERGKPYPREVLLERLLELGYQRNDIDLSPGRFRAKGEVLEIFPAYETEPIRVELFGDEVERISQVHPVTGERLRELPGFVLFPATHYLSPEGLEEILKEIEKELWERVRYFEERGEVLYAQRLKERTLYDLEMLRVMGTCPGVENYARYFTGKAPGEPPYTLLDYFPEDFLVFLDESHVTVPQLQGMYRGDYARKKTLVDYGFRLPSALDNRPLRFEEFLERVSQVVFVSATPGPFELAHSGRVVEQIIRPTGLLDPLVRVKPTENQILDLMEGIRERAARGERTLVTVLTVRMAEELTSFLVEHGIRARYLHHELDAFERQALIRDLRLGHYDCLVGINLLREGLDIPEVSLVAILDADKEGFLRSERSLIQTIGRAARNARGEVWLYADRVSEAMQRAIEETNRRRALQEAYNLEHGITPETVRKEVRAVIRPEGYEEAPLEADLSGEDLRERIAELELAMWQAAEALDFERAARLRDEIRALEARLQGVRAPEPVPGGRKRKRR
B3: ArgR (XerA) (protein, UniProt Q5SI21 1-164)
chain: MGNKAERHRAIQEIVRREEIGTQKELVERLRQLGFEVTQATVSRDIAELGLARIALGKGRHRYVLPAADLPENAYEELKRQFGLFVRDVDRGGNLLVVKTAEGHASGIAYLLDRLRRDEIVGTLAGDDTILVVARTEEAAQALEDEFAGLLVEGRALRRALSGS

What was measured:
Test in all cases: affinity purification with mass spectrometry
[1] = target: T1, TtAgo (Thermus thermophilus Argonaute, TT_P0026) (T. thermophilus (endogenous in strain HB27))
[2] = target: T1, TtAgo (Thermus thermophilus Argonaute, TT_P0026) (T. thermophilus (endogenous in strain HB27)); remark: listed apart in the source
[3] = target: T2, TtAgo^D478A,D546A (catalytically inactive double point-mutant TtAgo) (T. thermophilus (endogenous in strain HB27))

Molecule	binding [1]	binding [2]	binding [3]
RecJ (from UniProt Q5SJ47 1-666) (enzyme)	binds		
AddB	binds	binds	no binding
AddA	binds	binds	no binding
GyrB (from UniProt Q5SHZ4 1-634) (enzyme)	binds		
ssDNA-binding protein SSB	binds		
PolA (from UniProt Q72JS8) (enzyme)	binds		
RepA	binds		
histone-like protein HU	binds		
Topol (from UniProt Q72GB7) (enzyme)	binds		
Rad52	binds		
FtsE	binds		
PriA (from UniProt Q72GA6)	binds		
B1	binds		
B2	binds		
B3	binds		

Reference: paper doi:10.1101/869172
